# Some of the results follow.
# By UniProt entry, the sequences of proteins in these tests, tags left out. Where a name states a change or a piece, a line headed by the entry shows the natural chain unless it says otherwise.
# UniProt Q9H974: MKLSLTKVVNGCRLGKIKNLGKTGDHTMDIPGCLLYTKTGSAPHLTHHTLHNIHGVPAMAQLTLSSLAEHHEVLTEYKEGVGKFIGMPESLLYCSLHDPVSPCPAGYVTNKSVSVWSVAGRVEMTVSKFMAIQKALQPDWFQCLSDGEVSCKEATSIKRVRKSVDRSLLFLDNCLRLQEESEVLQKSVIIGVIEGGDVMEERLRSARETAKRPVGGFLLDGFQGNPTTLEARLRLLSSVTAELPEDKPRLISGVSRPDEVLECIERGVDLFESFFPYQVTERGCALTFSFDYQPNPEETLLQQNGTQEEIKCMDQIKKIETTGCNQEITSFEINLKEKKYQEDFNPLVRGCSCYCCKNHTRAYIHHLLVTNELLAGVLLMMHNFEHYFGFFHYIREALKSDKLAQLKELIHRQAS
# UniProt P47897: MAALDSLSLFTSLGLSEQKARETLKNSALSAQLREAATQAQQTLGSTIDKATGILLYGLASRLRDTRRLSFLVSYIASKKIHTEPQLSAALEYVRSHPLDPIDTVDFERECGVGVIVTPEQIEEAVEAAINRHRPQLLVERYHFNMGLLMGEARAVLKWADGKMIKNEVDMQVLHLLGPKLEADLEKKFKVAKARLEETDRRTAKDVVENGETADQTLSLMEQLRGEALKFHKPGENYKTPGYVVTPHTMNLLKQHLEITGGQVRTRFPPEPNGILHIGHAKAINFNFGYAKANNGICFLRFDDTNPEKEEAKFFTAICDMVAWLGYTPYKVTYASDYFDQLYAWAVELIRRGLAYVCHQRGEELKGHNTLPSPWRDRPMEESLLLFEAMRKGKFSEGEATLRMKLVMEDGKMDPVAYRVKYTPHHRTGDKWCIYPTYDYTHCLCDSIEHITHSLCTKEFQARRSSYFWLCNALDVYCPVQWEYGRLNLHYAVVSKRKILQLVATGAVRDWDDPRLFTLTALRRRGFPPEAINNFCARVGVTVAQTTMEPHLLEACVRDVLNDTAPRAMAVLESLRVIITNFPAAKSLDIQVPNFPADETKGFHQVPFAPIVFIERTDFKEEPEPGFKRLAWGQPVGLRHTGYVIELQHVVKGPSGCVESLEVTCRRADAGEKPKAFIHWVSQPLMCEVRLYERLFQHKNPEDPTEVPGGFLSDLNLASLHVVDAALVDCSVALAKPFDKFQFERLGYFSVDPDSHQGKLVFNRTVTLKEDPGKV
# UniProt Q9Y3P9: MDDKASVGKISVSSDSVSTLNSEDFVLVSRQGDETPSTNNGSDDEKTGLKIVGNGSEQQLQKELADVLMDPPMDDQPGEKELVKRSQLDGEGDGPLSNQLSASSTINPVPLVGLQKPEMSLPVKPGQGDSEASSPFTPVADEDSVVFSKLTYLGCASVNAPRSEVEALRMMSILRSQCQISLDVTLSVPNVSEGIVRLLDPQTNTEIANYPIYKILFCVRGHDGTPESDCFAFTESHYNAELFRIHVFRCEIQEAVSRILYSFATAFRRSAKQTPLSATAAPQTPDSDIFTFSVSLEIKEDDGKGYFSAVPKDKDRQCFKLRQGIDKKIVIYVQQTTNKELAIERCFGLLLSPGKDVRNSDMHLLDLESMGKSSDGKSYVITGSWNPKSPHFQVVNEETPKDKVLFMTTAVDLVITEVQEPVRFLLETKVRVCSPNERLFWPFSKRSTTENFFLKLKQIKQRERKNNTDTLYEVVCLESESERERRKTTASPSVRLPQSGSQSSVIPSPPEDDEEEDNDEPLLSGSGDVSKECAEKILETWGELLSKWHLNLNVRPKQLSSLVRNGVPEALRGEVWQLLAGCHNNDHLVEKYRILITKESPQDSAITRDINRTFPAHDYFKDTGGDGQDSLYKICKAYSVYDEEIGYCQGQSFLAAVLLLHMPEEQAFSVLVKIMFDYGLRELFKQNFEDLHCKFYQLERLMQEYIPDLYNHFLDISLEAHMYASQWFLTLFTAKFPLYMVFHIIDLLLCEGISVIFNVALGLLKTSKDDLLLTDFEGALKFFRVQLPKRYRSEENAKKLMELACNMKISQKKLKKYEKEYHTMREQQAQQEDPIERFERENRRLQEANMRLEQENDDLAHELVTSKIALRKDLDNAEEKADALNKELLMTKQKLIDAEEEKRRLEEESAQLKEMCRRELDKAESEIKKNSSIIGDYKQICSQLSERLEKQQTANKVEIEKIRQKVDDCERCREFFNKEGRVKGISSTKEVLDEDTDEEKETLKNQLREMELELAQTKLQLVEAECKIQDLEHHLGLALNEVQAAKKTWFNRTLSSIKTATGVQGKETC
# UniProt Q9H0R6: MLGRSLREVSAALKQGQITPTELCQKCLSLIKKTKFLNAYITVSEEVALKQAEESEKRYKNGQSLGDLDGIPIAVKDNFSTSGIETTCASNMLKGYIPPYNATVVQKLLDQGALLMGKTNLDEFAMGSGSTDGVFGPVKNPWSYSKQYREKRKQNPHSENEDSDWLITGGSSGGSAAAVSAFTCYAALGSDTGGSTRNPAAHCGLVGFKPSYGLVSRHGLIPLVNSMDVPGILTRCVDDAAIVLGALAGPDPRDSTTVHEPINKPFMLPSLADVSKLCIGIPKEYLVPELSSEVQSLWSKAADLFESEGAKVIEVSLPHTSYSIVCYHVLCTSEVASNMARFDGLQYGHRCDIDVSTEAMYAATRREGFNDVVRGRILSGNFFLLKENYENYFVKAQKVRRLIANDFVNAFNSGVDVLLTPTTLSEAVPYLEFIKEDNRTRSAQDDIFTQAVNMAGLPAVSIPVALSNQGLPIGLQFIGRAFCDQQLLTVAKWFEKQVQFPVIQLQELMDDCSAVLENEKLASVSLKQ
# UniProt P06737: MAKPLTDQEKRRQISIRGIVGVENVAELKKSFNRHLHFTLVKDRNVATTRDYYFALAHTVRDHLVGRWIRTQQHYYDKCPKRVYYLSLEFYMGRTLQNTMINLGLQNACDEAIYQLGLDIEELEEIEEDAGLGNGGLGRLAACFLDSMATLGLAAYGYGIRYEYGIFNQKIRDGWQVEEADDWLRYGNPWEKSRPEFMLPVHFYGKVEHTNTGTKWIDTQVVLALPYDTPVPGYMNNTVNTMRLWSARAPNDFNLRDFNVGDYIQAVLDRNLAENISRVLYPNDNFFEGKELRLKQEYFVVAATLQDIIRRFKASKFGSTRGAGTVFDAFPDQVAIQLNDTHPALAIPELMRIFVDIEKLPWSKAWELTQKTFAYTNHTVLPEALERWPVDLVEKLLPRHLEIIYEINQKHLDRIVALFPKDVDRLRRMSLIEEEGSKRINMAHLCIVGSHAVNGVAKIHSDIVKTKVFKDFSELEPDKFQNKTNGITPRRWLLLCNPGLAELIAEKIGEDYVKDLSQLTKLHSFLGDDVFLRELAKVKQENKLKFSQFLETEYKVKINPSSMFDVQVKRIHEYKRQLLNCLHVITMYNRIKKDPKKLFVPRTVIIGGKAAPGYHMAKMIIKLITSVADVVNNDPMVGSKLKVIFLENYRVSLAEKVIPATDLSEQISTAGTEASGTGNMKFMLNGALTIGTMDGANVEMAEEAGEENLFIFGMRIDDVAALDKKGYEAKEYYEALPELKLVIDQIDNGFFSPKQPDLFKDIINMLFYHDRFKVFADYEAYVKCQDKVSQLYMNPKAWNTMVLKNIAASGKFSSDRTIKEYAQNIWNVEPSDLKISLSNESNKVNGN
# UniProt Q92878: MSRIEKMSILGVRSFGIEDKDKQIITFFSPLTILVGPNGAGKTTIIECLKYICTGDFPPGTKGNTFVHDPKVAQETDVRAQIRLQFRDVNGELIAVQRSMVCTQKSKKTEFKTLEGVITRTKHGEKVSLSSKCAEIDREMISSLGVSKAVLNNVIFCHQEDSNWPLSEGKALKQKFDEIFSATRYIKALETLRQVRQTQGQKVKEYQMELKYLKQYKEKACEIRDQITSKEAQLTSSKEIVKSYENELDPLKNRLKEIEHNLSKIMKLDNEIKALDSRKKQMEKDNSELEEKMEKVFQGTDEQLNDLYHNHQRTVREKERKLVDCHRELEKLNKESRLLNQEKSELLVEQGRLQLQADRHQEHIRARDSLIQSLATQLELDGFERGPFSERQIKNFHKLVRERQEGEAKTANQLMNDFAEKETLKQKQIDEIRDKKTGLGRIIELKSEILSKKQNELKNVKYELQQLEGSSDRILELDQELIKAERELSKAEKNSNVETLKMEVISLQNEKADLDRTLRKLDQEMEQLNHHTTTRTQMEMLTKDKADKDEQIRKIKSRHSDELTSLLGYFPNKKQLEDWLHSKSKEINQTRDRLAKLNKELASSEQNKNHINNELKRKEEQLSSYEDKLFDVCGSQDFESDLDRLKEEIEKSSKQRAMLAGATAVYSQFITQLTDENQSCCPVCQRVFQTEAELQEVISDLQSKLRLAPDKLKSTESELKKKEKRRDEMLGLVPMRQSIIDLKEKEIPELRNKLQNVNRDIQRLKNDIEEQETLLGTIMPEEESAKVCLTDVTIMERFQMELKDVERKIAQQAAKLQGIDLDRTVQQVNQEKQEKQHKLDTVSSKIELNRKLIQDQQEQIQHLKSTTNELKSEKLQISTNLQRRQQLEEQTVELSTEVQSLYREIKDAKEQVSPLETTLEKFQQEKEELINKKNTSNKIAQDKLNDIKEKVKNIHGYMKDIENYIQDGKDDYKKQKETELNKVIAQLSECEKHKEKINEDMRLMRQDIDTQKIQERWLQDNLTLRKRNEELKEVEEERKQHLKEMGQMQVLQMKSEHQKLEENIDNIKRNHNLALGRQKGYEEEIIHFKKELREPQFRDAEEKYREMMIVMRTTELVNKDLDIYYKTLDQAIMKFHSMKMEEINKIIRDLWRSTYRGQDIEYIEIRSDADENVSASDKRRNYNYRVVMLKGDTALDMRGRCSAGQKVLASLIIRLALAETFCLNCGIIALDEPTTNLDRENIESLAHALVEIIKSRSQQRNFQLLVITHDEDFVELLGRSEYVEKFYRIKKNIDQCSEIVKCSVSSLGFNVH
# UniProt Q9NP72: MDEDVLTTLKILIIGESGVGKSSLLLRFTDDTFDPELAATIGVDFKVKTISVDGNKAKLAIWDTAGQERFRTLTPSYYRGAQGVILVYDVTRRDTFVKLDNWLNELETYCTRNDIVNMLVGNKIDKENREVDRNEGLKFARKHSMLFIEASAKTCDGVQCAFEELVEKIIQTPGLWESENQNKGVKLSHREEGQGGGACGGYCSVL
# UniProt P61006: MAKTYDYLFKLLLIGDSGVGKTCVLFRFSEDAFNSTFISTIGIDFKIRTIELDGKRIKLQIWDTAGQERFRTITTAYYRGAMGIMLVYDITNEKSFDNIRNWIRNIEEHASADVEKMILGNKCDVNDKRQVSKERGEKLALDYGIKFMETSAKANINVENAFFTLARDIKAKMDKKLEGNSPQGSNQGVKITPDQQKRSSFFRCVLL
# UniProt O15315: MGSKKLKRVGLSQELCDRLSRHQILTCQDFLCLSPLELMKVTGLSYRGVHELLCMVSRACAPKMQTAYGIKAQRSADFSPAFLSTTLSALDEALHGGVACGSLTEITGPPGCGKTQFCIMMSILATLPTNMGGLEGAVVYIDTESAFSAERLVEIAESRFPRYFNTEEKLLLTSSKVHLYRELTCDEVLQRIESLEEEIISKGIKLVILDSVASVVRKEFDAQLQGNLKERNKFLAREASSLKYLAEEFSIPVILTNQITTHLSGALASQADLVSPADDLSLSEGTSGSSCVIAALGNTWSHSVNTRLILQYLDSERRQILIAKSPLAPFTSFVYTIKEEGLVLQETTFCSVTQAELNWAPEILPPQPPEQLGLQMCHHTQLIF
# UniProt P51149, whole entry, looked up: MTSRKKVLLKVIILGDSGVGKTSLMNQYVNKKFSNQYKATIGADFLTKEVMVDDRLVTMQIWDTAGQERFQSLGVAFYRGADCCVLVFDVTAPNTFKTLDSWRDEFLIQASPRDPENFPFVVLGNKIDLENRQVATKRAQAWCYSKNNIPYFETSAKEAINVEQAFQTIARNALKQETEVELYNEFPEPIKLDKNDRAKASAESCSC
# UniProt P49023, whole entry, looked up: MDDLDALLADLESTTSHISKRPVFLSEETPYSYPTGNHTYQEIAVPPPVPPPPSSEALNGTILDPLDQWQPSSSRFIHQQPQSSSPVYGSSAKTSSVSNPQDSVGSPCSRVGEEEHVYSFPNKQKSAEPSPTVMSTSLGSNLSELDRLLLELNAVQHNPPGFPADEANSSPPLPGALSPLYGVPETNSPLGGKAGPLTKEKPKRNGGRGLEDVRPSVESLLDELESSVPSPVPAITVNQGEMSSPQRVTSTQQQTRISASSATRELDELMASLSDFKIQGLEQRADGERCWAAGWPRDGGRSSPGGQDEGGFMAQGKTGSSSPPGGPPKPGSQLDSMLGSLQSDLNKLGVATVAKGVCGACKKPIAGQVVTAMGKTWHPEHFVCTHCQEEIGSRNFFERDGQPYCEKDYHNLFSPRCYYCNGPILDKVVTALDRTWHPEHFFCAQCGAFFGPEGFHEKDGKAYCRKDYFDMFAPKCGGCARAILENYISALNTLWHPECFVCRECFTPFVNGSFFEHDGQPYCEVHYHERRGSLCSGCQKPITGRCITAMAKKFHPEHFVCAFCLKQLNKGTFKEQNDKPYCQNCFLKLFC
# Compound: Cc1cc(ccc1-c1ccccc1)C(=O)N1CCCN(CC1)C(=O)CCl [compound 10]
# Assay: probe-labelled cysteine peptide fold change vs DMSO (competition) (log2 fold change); higher = less target engagement (more negative = stronger competition)
# Conditions: THP-1, incubation time: 4 h
# 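Further: competitive profiling in live THP-1 cells: cysteine peptides tagged with an iodoacetamide desthiobiotin (IA-DTB) probe, intensity after compound treatment relative to DMSO-treated cells.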
Target,probe-labelled cysteine peptide fold change (10 µM),probe-labelled cysteine peptide fold change (50 µM)
QTRT2_Q9H974_174_SLLFLDNCLR (UniProt Q9H974),0.232,0.283
RAB7B_Q96AH8_142_VPQEVAQGWCR (UniProt Q96AH8),-0.0255,0.0526
RAB3GAP1_Q15042_678_MQSACLLSDMESFK (UniProt Q15042),0.194,0.145
RAB33A_Q14088_197_ESQNVESIFMCLACR (UniProt Q14088),0.0156,-0.365
RAB29_O14966_120_LTLPNGEPVPCLLLANK (UniProt O14966),-0.176,0.0583
RAC3_P60763_105_HHCPHTPILLVGTK (UniProt P60763),0.0151,-0.219
QARS_P47897_111_ECGVGVIVTPEQIEEAVEAAINR (UniProt P47897),0.0136,0.0753
QARS_P47897_657+665_GPSGCVESLEVTCR (UniProt P47897),-0.0476,-0.282
QARS_P47897_433+445+456_WCIYPTYDYTHCLCDSIEHITHSLCTK (UniProt P47897),0.0988,-0.441
RAB9B_Q9NP90_182_QVLAVEEQLEHCMLGHTIDLNSGSK (UniProt Q9NP90),-0.143,-0.546
RACK1_P63244_240_HLYTLDGGDIINALCFSPNR (UniProt P63244),0.11,0.249
RABGAP1_Q9Y3P9_476_KNNTDTLYEVVCLESESERER (UniProt Q9Y3P9),-0.254,-0.296
QRSL1_Q9H0R6_483_AFCDQQLLTVAK (UniProt Q9H0R6),0.104,0.0537
PYGL_P06737_446_RINMAHLCIVGSHAVNGVAK (UniProt P06737),-0.0121,-0.0993
RAD50_Q92878_133_CAEIDREMISSLGVSK (UniProt Q92878),-0.195,-0.429
RADIL_Q96JH8_298_PSISLSAPDILPLHCTIR (UniProt Q96JH8),0.0599,0.353
RAB18_Q9NP72_160_TCDGVQCAFEELVEK (UniProt Q9NP72),-0.00893,0.0338
QARS_P47897_665_GPSGCVESLEVTCR (UniProt P47897),-0.11,0.446
RAD50_Q92878_133_CAEIDR (UniProt Q92878),-0.158,-0.0778
PWP1_Q13610_439_MGVLFCSSCCPDLPFIYAFGGQK (UniProt Q13610),-0.0362,0.0392

# Another view of part of the listing above.
Target	probe-labelled cysteine peptide fold change (10 µM)	probe-labelled cysteine peptide fold change (50 µM)
QRSL1_Q9H0R6_483_AFCDQQLLTVAK (UniProt Q9H0R6)	0.104	0.0537
PYGL_P06737_446_RINMAHLCIVGSHAVNGVAK (UniProt P06737)	-0.0121	-0.0993
RAD50_Q92878_133_CAEIDREMISSLGVSK (UniProt Q92878)	-0.195	-0.429

# More records follow:

Target,probe-labelled cysteine peptide fold change (10 µM),probe-labelled cysteine peptide fold change (50 µM)
RAB8B_Q92930_123_CDMNDK (UniProt Q92930),-0.0137,0.218
RABEP2_Q9H5N1_372_CLHHEVK (UniProt Q9H5N1),-0.042,-0.463
RAB8A_P61006_123_CDVNDKR (UniProt P61006),-0.207,-0.121
RAD51B_O15315_27_HQILTCQDFLCLSPLELMK (UniProt O15315),0.457,0.433
RAD50_Q92878_788_VCLTDVTIMER (UniProt Q92878),0.156,0.237
RABEP1_Q15276_350_IPVVCALTQEESSAQLSNEEEHLDSTR (UniProt Q15276),0.19,0.0593
RAD50_Q92878_325_LVDCHR (UniProt Q92878),0.155,0.274
QSER1_Q2KHR3_1188_TFCPPPLPK (UniProt Q2KHR3),-0.0924,0.0277
QSOX2_Q6ZRP7_476_YVHTFFGCK (UniProt Q6ZRP7),-0.059,-0.0526
RACGAP1_Q9H0H5_93_AEADCEK (UniProt Q9H0H5),0.0715,0.13
RAB7A_P51149_83+84_GADCCVLVFDVTAPNTFK (UniProt P51149),0.0125,0.271
QTRT2_Q9H974_263_LISGVSRPDEVLECIER (UniProt Q9H974),0.0125,0.174
PYCR3_Q53H96_49+56_NLCHFQALGCR (UniProt Q53H96),-0.0782,-0.183
PUS7L_Q9H0K6_561_VVQGDLVCLDEDIDDENFPNSK (UniProt Q9H0K6),-0.0134,-0.0822
QTRT2_Q9H974_312_CMDQIK (UniProt Q9H974),-0.276,-0.451
PXN_P49023_564_KFHPEHFVCAFCLK (UniProt P49023),-0.0109,-0.654
PXN_P49023_505+523_ECFTPFVNGSFFEHDGQPYCEVHYHER (UniProt P49023),0.194,-0.262
RACK1_P63244_249_YWLCAATGPSIK (UniProt P63244),0.207,0.0731
RAB14_P61106_40_KFMADCPHTIGVEFGTR (UniProt P61106),-0.0457,-0.281

# Source: the supplement of paper PMC12067093, “Discovery and optimisation of a covalent ligand for TRIM25 and its application to targeted protein ubiquitination” (Chemical Science, 2025)
